Screening data

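Firefly luciferase light from HEK293 cells carrying a huntingtin (HTT) promoter reporter, read after 24 hours of compound exposure, giving single-concentration activity change.
Percent change in reporter signal versus vehicle (0%) down to no light (-100%); more negative values mean stronger inhibition of promoter activity.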

Values are in %.
Common to all entries: at 57.5 µM (top of the series).
Only part of the assay is listed here, not a random draw.

| SMILES | activity change (%) |
|---|---|
| `Cc1cccc(N2C(=O)C(CC(=O)Nc3ccc(Cl)cc3)N(Cc3ccco3)C2=O)c1` (configuration not stated) | -31.98 |
| `Cc1c(CCC(=O)NCCc2ccc(Cl)cc2)c(=O)oc2c(C)c(O)ccc12` | -2.453 |
| `Cc1ccc(CNC(=O)CCc2c(C)nn(-c3ccc(N4CCCC4)nn3)c2C)cc1` | -18.07 |
| `Cn1c(=O)c2c(-c3ccccc3)n3c(c2n(C)c1=O)C(c1cc(Cl)ccc1O)Nc1ccccc1-3` (configuration not stated) | -21.48 |
| `Cc1ccc(C)c(-n2c(N)c(C#N)c3nc4ccccc4nc32)c1` | -19.25 |
| `COc1ccc(C)cc1NC(=O)CCc1c(C)nn(-c2ccc(N3CCCCC3)nn2)c1C` | 10.06 |
| `Cc1cccc(N2CCN(C3(c4ccccc4)C(=O)c4ccccc4C3=O)CC2C)c1` (configuration not stated) | -17.31 |
| `Cc1c(NC(=O)c2cc(-c3cccc(Cl)c3)on2)c(=O)n(-c2ccccc2)n1C` | -12.01 |
| `Brc1cccc(-c2cnn3c(-c4ccccc4)cc(-c4ccccc4)nc23)c1` | -11.63 |
| `COc1cc(OC)c2c(C)c(CC(=O)NCCc3ccccc3OC)c(=O)oc2c1` | -6.447 |
| `Cc1ccc(C2Nc3ccccc3-n3c(-c4ccccc4)c4c(=O)n(C)c(=O)n(C)c4c32)cc1` (configuration not stated) | -16.33 |
| `CC1CCN(Cc2c(O)ccc3c(=O)c(-c4cccc(Cl)c4)c(C(F)(F)F)oc23)CC1` | -8.952 |
| `CCOC(=O)c1cccc(NC(=O)c2cc3ccccn3n2)c1` | -80.64 |
| `COc1ccc(-c2cc(C(=O)Nc3c(C)nn(Cc4ccc(C)cc4)c3C)no2)cc1OC` | -14.63 |
| `O=C(Nc1ccc(F)cc1F)c1cc(-c2ccc3c(c2)OCO3)on1` | 3.129 |
| `Cc1cccc(N2C(=O)C(CC(=O)Nc3cccc(F)c3)N(Cc3cccs3)C2=O)c1` (configuration not stated) | -30.8 |
| `COc1ccccc1CNC(=O)c1ccc(-c2nc(CS(=O)(=O)c3ccc(C)cc3)c(C)o2)cc1` | -48.67 |
| `O=C(O)CCc1ccc(-c2ccc(Cl)cc2)n1-c1cccc(C(F)(F)F)c1` | -29.87 |
| `COc1ccccc1N1CCN(C(=O)CCc2c(C)nn(-c3ccc(N4CCCC4)nn3)c2C)CC1` | -38.99 |
| `Cc1ccc(-c2nnc(Nc3cccc(Br)c3)c3ccccc23)cc1S(=O)(=O)N1CCCCC1` | -23.97 |
| `Cc1ccccc1CNC(=O)C1CCN(S(=O)(=O)Cc2ccccc2)CC1` | -10.69 |
| `Cc1ccc(-c2nnc(Nc3ccc(OCC(N)=O)cc3)c3ccccc23)cc1S(=O)(=O)N(C)C` | -41 |
| `COc1cc(OC)c2c(C)c(CC(=O)NCc3ccccc3OC)c(=O)oc2c1` | -7.779 |
| `O=C(Nc1ccccc1C(F)(F)F)C1CCN(S(=O)(=O)Cc2ccccc2)CC1` | -12.91 |
| `COc1ccc(CNC(=O)c2cnn(-c3ccccc3)c2-n2cccc2)cc1OC` | -56.53 |
| `CC1CCC(N2CC(=O)N(C3CCCCC3)C(c3ccc(F)cc3)C2=O)CC1` (configuration not stated) | -10.72 |
| `COc1cccc(N2C(=O)C(CC(=O)Nc3cccc(F)c3)N(C(C)C)C2=O)c1` (configuration not stated) | -14.92 |
| `CCCOc1ccc(C2C(=O)N(C3CCCCCC3)CC(=O)N2Cc2ccccc2OC)cc1OC` (configuration not stated) | -20.4 |
| `CCOc1ccc(CCNC(c2nnc(-c3ccccc3)o2)c2ccccc2Cl)cc1OCC` (configuration not stated) | -56.56 |
| `COc1ccc2c(c1)cc1c(=O)n(CC(=O)NCCCOC(C)C)nc(C)n12` | -15.84 |
| `CCOC(=O)c1cccc(NC(=O)CC2C(=O)N(c3ccc(C)cc3)C(=O)N2Cc2cccc(OC)c2)c1` (configuration not stated) | -23.23 |
| `COC(=O)c1ccccc1NC(=O)c1nc(-c2ccc(Cl)cc2)n2c1CCCCC2` | -12.72 |
| `CC1CCN(c2nn3c(=O)c(C(=O)NCCc4ccc(Cl)cc4)cnc3s2)CC1` | -8.177 |
| `Cc1ccccc1C(=O)Nc1ccc2oc(-c3ccc(Cl)c(Cl)c3)nc2c1` | -5.524 |
| `COc1cc(OC)cc(C(=O)Nc2cc3c(cc2N2CCCCC2)n(C)c(=O)n3C)c1` | -7.082 |
| `COc1cccc(OCCCn2c(-c3ccc(Cl)cc3)nc3ccccc3c2=O)c1` | 0.2604 |
| `Cc1cc(Cl)ccc1NC(=O)CCS(=O)(=O)c1ccc2c(c1)CC(C)N2C(=O)C1CC1` (configuration not stated) | -48.36 |
| `COc1ccc(C2=C(Nc3ccc(C)cc3C)c3ccccc3C2=O)cc1` | -28.72 |
| `Cc1ccc(C2C(=O)N(C3CCC(C)CC3)CC(=O)N2C2CCCC2)cc1` (configuration not stated) | -24.49 |
| `CC(=O)c1cccc(NC(=O)CSc2nc3ccccc3nc2Cc2ccc(F)cc2)c1` | 10.39 |
| `Cc1nn(Cc2ccc(F)cc2)c(C)c1NC(=O)c1noc2c1CCc1ccccc1-2` | -74.49 |
| `CCOC(=O)c1c(-c2ccccc2)oc2ccc(NS(=O)(=O)c3ccc(C(C)C)cc3)cc12` | -34.13 |
| `COc1cc2c(cc1OC)C(c1ccc(Cl)cc1)N(c1ccc(C)c(F)c1)C(=O)C2` (configuration not stated) | -48.38 |
| `CC(C)Cc1cc(C(=O)NCc2ccc(Cl)cc2)no1` | -1.738 |
| `Cc1c(CC(=O)NCc2ccccc2)c(=O)oc2c(C)c(O)ccc12` | -19.97 |
| `COc1ccc(Br)c(C(=O)Nc2cc3c(cc2N2CCOCC2)n(C)c(=O)n3C)c1` | -3.63 |
| `O=S(=O)(Nc1cccc(-c2ccc(N3CCCC3)nn2)c1)c1ccc(F)c(C(F)(F)F)c1` | -16.28 |
| `COc1ccc(C2(N3CCN(c4cc(C)ccc4C)CC3)C(=O)c3ccccc3C2=O)cc1` | -24.66 |
| `Cc1oc2c(cc(NS(=O)(=O)c3ccc(Br)cc3)c3ccccc32)c1C(=O)OCc1ccccc1` | -17.76 |
| `O=C(NCc1ccccc1)C1CCN(S(=O)(=O)Cc2ccccc2)CC1` | -15.02 |
| `COc1ccc(Br)cc1CNC(=O)C1CCCCN1S(=O)(=O)c1ccc(F)cc1` (configuration not stated) | -40.67 |
| `CCCc1cc(C(=O)Nc2c(C)nn(Cc3ccc(C)cc3)c2C)no1` | -88.8 |
| `CCOc1ccccc1CNC(=O)c1cnc2sc(N3CCC(C)CC3)nn2c1=O` | -8.528 |
| `CCOC(=O)c1c(NC(=O)c2cc(-c3ccc(OC)c(OC)c3)on2)sc(C)c1C` | -30.22 |
| `CCc1ccc(NC(=O)CCc2c(C)nn(-c3ccc(N4CCCC4)nn3)c2C)cc1` | -5.014 |
| `Cc1cccc(C(CC(=O)NCC2(c3ccccc3)CCCC2)c2ccccc2)c1O` (configuration not stated) | -58.39 |
| `CC(=O)Nc1ccc(Nc2nc3ccc(C)cc3n3nnnc23)cc1` | -7.618 |
| `CC(C)c1cc(C(=O)NCc2ccccc2)no1` | 56.34 |
| `CC(=O)OC(COc1ccccc1)Cn1cnc2cc(C)c(C)cc21` (configuration not stated) | -31.2 |
| `COc1ccc(-c2cc(C(=O)NCc3ccc(F)cc3)no2)cc1` | -8.014 |
| `CCN(C(=O)Cn1cnc2c1c(=O)n(C)c(=O)n2C)c1ccccc1C` | -8.42 |
| `Cc1ccc(C)c(OCCCn2c(-c3ccc(Cl)cc3)nc3ccccc3c2=O)c1` | -7.754 |
| `CC(=O)c1ccc(NC(=O)Nc2sc3nc4n(c(=O)c3c2C)CCC(C)CC4)cc1` (configuration not stated) | -7.699 |
| `N#Cc1ccc(NC(=O)c2cc(-c3cccc(Cl)c3)on2)cc1` | -5.525 |
| `Cc1c(CCC(=O)NCc2cccc(Cl)c2)c(=O)oc2c(C)c(O)ccc12` | -38.39 |
| `COc1ccc(CNC(=O)CCS(=O)(=O)c2ccc3c(c2)CC(C)N3C(=O)C2CC2)cc1` (configuration not stated) | -23.83 |
| `Cc1cccc(NS(=O)(=O)c2ccc3oc(=O)c4ncn(C)c4c3c2)c1C` | -24.14 |
| `COc1ccc(CNC(=O)CCc2c(C)c3ccc(OC)c(C)c3oc2=O)cc1OC` | -9.655 |
| `Cc1nc2cccnc2n1C1CCN(S(=O)(=O)N(C)C)CC1` | -10.54 |
| `CC1Cc2cc(S(=O)(=O)NCc3ccc(Cl)cc3)ccc2N1C(=O)C1CCC1` (configuration not stated) | -30.76 |

Repeated from the top, 9 entries:

| SMILES | activity change (%) |
|---|---|
| `Cc1cccc(N2C(=O)C(CC(=O)Nc3ccc(Cl)cc3)N(Cc3ccco3)C2=O)c1` (configuration not stated) | -31.98 |
| `Cc1c(CCC(=O)NCCc2ccc(Cl)cc2)c(=O)oc2c(C)c(O)ccc12` | -2.453 |
| `Cc1ccc(CNC(=O)CCc2c(C)nn(-c3ccc(N4CCCC4)nn3)c2C)cc1` | -18.07 |
| `Cn1c(=O)c2c(-c3ccccc3)n3c(c2n(C)c1=O)C(c1cc(Cl)ccc1O)Nc1ccccc1-3` (configuration not stated) | -21.48 |
| `Cc1ccc(C)c(-n2c(N)c(C#N)c3nc4ccccc4nc32)c1` | -19.25 |
| `COc1ccc(C)cc1NC(=O)CCc1c(C)nn(-c2ccc(N3CCCCC3)nn2)c1C` | 10.06 |
| `Cc1cccc(N2CCN(C3(c4ccccc4)C(=O)c4ccccc4C3=O)CC2C)c1` (configuration not stated) | -17.31 |
| `Cc1c(NC(=O)c2cc(-c3cccc(Cl)c3)on2)c(=O)n(-c2ccccc2)n1C` | -12.01 |
| `Brc1cccc(-c2cnn3c(-c4ccccc4)cc(-c4ccccc4)nc23)c1` | -11.63 |

From PubChem BioAssay record AID1508623 (NCATS, 2021).